Primary screen of a compound library

Measurements from “University of Dundee, Small-Polar-MMV Screening Library” (2021), ChEMBL document CHEMBL3988442.

Results are given as percent effect.
The record does not define 0% and 100%; most values in the screen are far below 50% and negative numbers occur (in some assays of this library far below -100).
The compounds are a random part of those screened.
A dash means the value is not listed here; it may have been measured.

T. brucei: 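Whole-parasite assay of Trypanosoma brucei over 72 hours; the read-out is not stated. Tested at 30 µM. Direction is inferred from retests: higher values go with stronger inhibition. Values scatter widely below zero; nearly all retest evidence comes from the higher of the two concentrations used. Of about 64,000 compounds tested this way, about 940 (1.5%) reached 50% or more in at least one test.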
Toxoplasma: 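Assay of Toxoplasma gondii numbers, read through their beta-galactosidase reporter with a colour substrate. Compounds at 10 µM. Higher reads as fewer parasites (inferred from which compounds were picked for retests). Size under these conditions: about 67,000 compounds, about 260 of them at 50% or above in at least one test.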

compound	T. brucei	Toxoplasma
CNCc1n[nH]c(=O)n1-c1ccccc1Oc1ccccc1	-25.03%	-0.3706%
O=c1c2cc3c(cc2nnn1Cc1cccc(F)c1)OCCO3	-2.515%	-39.54%
COCCN1CCN(CC(=O)N(C)Cc2ccccc2)CC1C (stereo not shown)	-24.37%	6.972%
Cc1ccc(OCCN(C)Cc2nccn2C)c(C)c1	-13.61%	-10.93%
Cc1occc(=O)c1OCC(=O)N1CCN(c2ccccc2)CC1	-16.18%	-5.798%
CN1C(=O)C2(CCN(C(=O)C3CCOCC3)CC2)c2ccccc21	-5.902%	6.176%
CCc1cnc(CN(C)C2CCN(CCn3cc(C#N)cn3)C2)o1 (stereo not shown)	-0.7137%	-17.28%
CCCc1nc(CN2CCOC(Cn3cccn3)C2)no1 (stereo not shown)	-11.65%	-18.08%
CCCc1cc(NCc2cc(C)on2)n2nccc2n1	-42.71%	-2.683%
CN1CCCCC1c1nc(Cc2cccc(F)c2)no1 (stereo not shown)	-88.42%	-2.817%
Cn1cnnc1CN1CCC2(CCC(=O)N(Cc3ccccc3)C2)CC1	-24.52%	4.909%
Cc1cnn(CC2CN(Cc3nccn3C)CCO2)c1 (stereo not shown)	-3.232%	3.985%
Cc1ccc(CNC(=O)CC2C(=O)NCCN2Cc2ccccc2C)s1 (stereo not shown)	-33.48%	23.5%
CC(=O)N1CCCC1c1nnn2cc(Nc3ccccc3)ccc12.O=C(O)C(F)(F)F (stereo not shown)	-62.11%	6.998%
COc1ccc(C(=O)NCc2cc(N3CCOCC3)ncn2)o1	-11.43%	0.194%
CNC(=O)c1ccc(C2CN(C(=O)c3cnn(C)c3)CCO2)nc1 (stereo not shown)	6.691%	-13.57%
CC(C)(C)CCS(=O)(=O)NCCc1csc(N2CCCC2)n1	6.839%	0.6866%
O=c1ccncn1Cc1csc(C2CC2)n1	-13.33%	9.431%
Cc1ccc(F)c(C(=O)Nc2cccc(CCN3CCCC3)c2)c1	-58%	5.366%
CC(C)c1ncc2c(n1)CN(Cc1nc3c(F)cccc3[nH]1)CC2	4.86%	-3.615%
COC1CCN(C(=O)Cc2csc(-c3ccccc3)n2)CC1	99.67%	17.49%
Cc1ccc(C(=O)N2CCCS2(=O)=O)cc1Cl	-31.26%	-5.952%
Cc1nc2sccn2c1C(=O)N1CCc2c(nc(N)[nH]c2=O)C1	-5.083%	-6.098%
Cn1c(Cn2ccnc2)nnc1C1CCN(Cc2cccnc2N)CC1	-17.35%	1.047%
COCCc1noc(CN2CCCC2c2c(C)nn(C)c2Cl)n1 (stereo not shown)	-1.84%	-8.056%
COc1ccc2c(c1)C1(CCN(Cc3ccncc3)CC1)N(C)CC2	-2.06%	-3.991%
COc1cccc(C(CO)NC(=O)NC(C)C)c1 (stereo not shown)	-14.35%	-8.163%
COCc1ncn(Cc2nc(-c3ccc(OC)c(OC)c3)oc2C)n1	-26.92%	-0.523%
Cc1ccc(CN(C)C(=O)CN2CCCC2c2cnn(C)c2)o1 (stereo not shown)	-103.3%	3.666%
O=C(O)C(F)(F)F.[H][C@@]12CCN(C(=O)c3cnn(C)c3)[C@@]1([H])CCN2Cc1cccc(F)c1	-	-1.237%
Cc1cc(C)n(CCN2CCOC(CNc3cccnn3)C2)n1 (stereo not shown)	-	-20.91%
[H][C@]12CCC[C@@]1(COCc1cccnc1)CN(C(=O)c1ccc(C)s1)C2	8.289%	-19.48%
Cc1ccc(CN2CC[C@H](O)[C@@H](n3ccc(=O)[nH]c3=O)CC2)cc1	-20.88%	-3.107%
C=C(C)CN(CC)C(=O)c1cc(Cl)ccc1NS(C)(=O)=O	-42.79%	16.62%
CN1CCCN(C(=O)NCc2cccnc2-n2cccn2)CC1	10.58%	5.643%
CC(C)NC(=O)CN(C)C(=O)c1c(Br)c2ccccc2n1C	-18.14%	-4.043%
CCc1nc(CN2CCN(C(=O)c3csc(C(C)C)n3)CC2)no1	-0.8095%	6.079%
CC(C)CC(NC(=O)Nc1ccc(F)c(Cl)c1)C(=O)O (stereo not shown)	-10.31%	-17.69%
O=C(c1ccccn1)N1CCc2c(nc(N3CCCC3)[nH]c2=O)C1	9.453%	21.33%
CCOCC(=O)Nc1ccc(-n2ccc(C(N)=O)n2)cc1	-72.88%	-3.048%
COC(=O)c1cccc(C(=O)NCc2ccc(C)o2)n1	-11.49%	10.06%
O=C(NC1CC1)C1CCN(c2cccc(C(F)(F)F)n2)CC1	23.27%	-10.29%
CN1CCN(C)C(CNC(=O)N(C)Cc2ccc(Cl)c(F)c2)C1 (stereo not shown)	-8.914%	-2.386%
CNC(C(=O)N1CCC(c2nccn2C(C)C)CC1)c1ccccc1 (stereo not shown)	-7.674%	-9.57%
CC(c1ccco1)N(C(=O)COc1ccc(C#N)cc1)C1CC1 (stereo not shown)	-43.57%	6.183%
[H][C@]12CN(C(=O)c3ccc(C)s3)C[C@@]1([H])OCCN(S(C)(=O)=O)C2	-29.36%	13.67%
Cc1nc(C(F)(F)F)nc(N2CCC3(CC2)CC(C(=O)O)N(C)C3)c1C (stereo not shown)	2.415%	-7.443%
Cc1noc(C)c1CN1CCN(CC2CC2)c2ncccc2C1.O=C(O)C(F)(F)F.O=C(O)C(F)(F)F	-2.749%	-0.05546%
Cc1nccc(N(C)Cc2ncc(-c3ccccc3C(=O)O)s2)n1	-6.633%	3.972%
COc1ccc(CN2CCCn3cncc3C2)cc1Cn1cncn1	-0.05577%	4.677%
O=C(O)[C@@H]1CN(C(=O)CN2CCCCCC2)C[C@H]1c1ccccc1	-6.087%	4.313%
Cc1cccc2[nH]c(C3CCCN3Cc3ccc(CO)o3)nc12 (stereo not shown)	-30.04%	-18.18%
CC(C)(N)c1cn(C2CCN(C3CCSCC3)CC2)nn1	3.766%	-5.09%
CN(Cc1ccccn1)CC1CCCN1c1cccnn1 (stereo not shown)	-	22.76%
[H][C@@]12CCN(c3cnccn3)C[C@@]1(C(=O)O)CCCN2CCCSC	-11.54%	-3.475%
CC(C(=O)Nc1cccc(N2CCCCC2)c1)n1cncn1 (stereo not shown)	11.14%	-0.8616%
Cc1ncc(CN2CCC(c3nc4cc(Cl)ccc4o3)CC2)s1	43.62%	-5.431%
Nc1nccc(N2CCC(Cc3ccccc3Cl)(C(=O)O)CC2)n1	5.574%	-0.2308%
CCc1nc(C2CCCN2c2ncc(Br)cn2)no1 (stereo not shown)	-38.96%	7.249%
O=C(Cc1cccc(F)c1)NCCNCc1ccc2c(c1)CCO2	24.8%	2.859%
Cc1nn(C)c(C)c1-c1cnc(C2CCCN(S(C)(=O)=O)C2)cn1 (stereo not shown)	9.389%	-0.8214%
O=C(O)C(F)(F)F.[H][C@@]12COC[C@@H](CC(=O)N3CCCC3)[C@]1([H])CN(C(=O)c1ccccn1)C2	-14.99%	-20.45%
c1cnn(CCNCc2nnc(C3CC3)o2)c1	-29.73%	-
Cc1ncsc1C(=O)N(C)Cc1ccc(Br)o1	-16.78%	-16.51%
O=C(Cn1ccc(=O)c2ccccc21)Nc1cnccc1O	-18.05%	-0.3743%
CS(=O)(=O)N1CCCC12CCCN(C(=O)c1ccnnc1)C2 (stereo not shown)	-60.66%	12.91%
CCOc1cccc(CCNC(=O)Cc2ccn[nH]2)n1	-47.14%	6.252%
CSCC(=O)N1CCCC(CO)(CC2CC2)C1 (stereo not shown)	-11.34%	5.096%
N#Cc1ccc(C(=O)NS(=O)(=O)c2ccc(C#N)c(Cl)c2)cc1	6.786%	-6.456%
COCC(O)CN(C)C(=O)NC1CCN(S(C)(=O)=O)CC1 (stereo not shown)	-0.8574%	12.6%
CCn1cc(NC(=O)NCC(C)O)cn1 (stereo not shown)	-31.45%	-
CC(C)CC(NC(=O)CN(C)C(=O)c1ccco1)c1cccs1 (stereo not shown)	-6.683%	7.179%
CCS(=O)(=O)N1CCC2(CC1)CN(Cc1ccccn1)C(=O)CO2.O=C(O)C(F)(F)F	2.711%	-18.37%
Cc1ccc(CN2CC(O)CN(C(=O)C3CC3)CC2=O)cc1 (stereo not shown)	-22.98%	-8.541%
Cc1cc(CNCc2c(C(C)C)nn(C)c2N2CCOCC2)no1	-70.02%	4.834%
Cc1ncsc1CNCC(C)c1nc2ccccc2o1 (stereo not shown)	5.532%	-3.864%

5 of the entries, repeated:

compound,T. brucei,Toxoplasma
COC(=O)c1cccc(C(=O)NCc2ccc(C)o2)n1,-11.49%,10.06%
CC(C(=O)Nc1cccc(N2CCCCC2)c1)n1cncn1 (stereo not shown),11.14%,-0.8616%
CN1C(=O)C2(CCN(C(=O)C3CCOCC3)CC2)c2ccccc21,-5.902%,6.176%
COC1CCN(C(=O)Cc2csc(-c3ccccc3)n2)CC1,99.67%,17.49%
CN(Cc1ccccn1)CC1CCCN1c1cccnn1 (stereo not shown),-,22.76%